Laboratory results reported in PMC12040169 (PLOS Biology, 2025).
The other results are listed elsewhere or left out.

These compounds were tested on T1, CTL2-GFP (C. trachomatis L2/434/Bu, GFP-expressing). Conditions: bulk GFP, single well; 28.5 h, 10 µM; inhibitor.
T1 construct: L2/434/Bu, GFP-expressing
Set-up: species or system HeLa; Intracellular C. trachomatis growth in HeLa cells, bulk GFP fluorescence relative to DMSO

SMILES | % of control remaining [%]
COc1ccc(CCN(Cc2ccc(Cl)c(Cl)c2)C(=O)NCCCSC)cc1OC [CBK158758] | 90.5921
O=C(Nc1ccccc1C(=O)N1CCN(Cc2ccccc2)CC1)c1ccc(F)cc1 [CBK264948] | 100
Nc1ncc(-c2cccc(O)c2)nc1-c1ccc(C(=O)NCCO)cc1 [CBK064143] | 141.575
O=c1c(N2CCNCC2)nccn1CCOc1cccc(Cl)c1Cl [CBK013463] | 114.938
Cc1cccn2cc(COC(=O)c3ccc(F)cc3N)nc12 [CBK298310] | 188.995
O=C(Cn1c(-c2ccc(F)cc2)cc2cccnc21)N1CCCC1 [CBK285384] | 84.9907
O=c1n(-c2ccc3c(c2)OCO3)ccn1S(=O)(=O)c1ccc2c(c1)OCCO2 [CBK106636] | 100
Cc1ccc(C)n1NC(=O)c1ccccc1[N+](=O)[O-] [CBK266151] | 120.42
N#Cc1cccc(S(=O)(=O)Nc2cccc3[nH]ccc23)c1 [CBK155771] | 130.727
CCc1nccn1CCC(=O)NC1CCCN(Cc2ccccc2F)C1 (stereo not drawn) [CBK306652] | 119.263
CCNC(=O)c1ccc(-c2ccc(S(C)(=O)=O)cc2)nc1 [CBK158882] | 106.893
CC(NC(=O)N1CCNC(=O)C1)c1ccccc1 (stereo not drawn) [CBK155877] | 102.713
CN(Cc1ccccc1)C(=O)[C@H]1C[C@@H](O)[C@H](O)[C@@H]2N=C(Nc3ccc(Cl)cc3)S[C@@H]21 [CBK288949] | 113.733
COc1cccc(NC(=O)CN(c2ccccc2)S(=O)(=O)c2ccc(Cl)cc2)c1 [CBK265366] | 101.244
c1cc2c3c(ccc(CSCCc4ccncc4)c3c1)CC2 [CBK261074G] | 85.1807
N#Cc1ccc(Sc2cccc(F)c2)c(F)c1 [CBK002909] | 107.316
Fc1ccc(Nc2cncc(-c3cccs3)n2)cc1Cl [CBK065813] | 98.7464
CCOC(=O)c1cnn(C2CCCN(Cc3cn(C)nc3C)C2)c1 (stereo not drawn) [CBK304044] | 135.8
O=C(Nc1nc(OCC(F)(F)F)cnc1-c1ccc(Cl)cc1Cl)c1cc2ccccc2s1 [CBK145358] | 77.6795
CC(C)c1ccc(S(=O)(=O)Nc2ccc3[nH]c(C(F)(F)F)nc3c2)cc1 [CBK044470] | 68.6746
O=C(NCc1ccc(Cl)cc1)c1cc(-c2ccc(F)cc2)nc2ccccc12 [CBK294451] | 112.471
Cc1ccc(S(=O)(=O)N2CCC(n3c(=O)[nH]c4ccccc43)CC2)cc1Cl [CBK149691] | 103.894
CC(NS(=O)(=O)c1ccccc1)C(=O)Nc1ccc(S(N)(=O)=O)cc1 (stereo not drawn) [CBK266929] | 155.778
CCN(CC)CCN1C(=O)c2oc3cc(C)c(C)cc3c(=O)c2C1c1cc(Br)c(O)c(OC)c1 (stereo not drawn) [CBK266846] | 162.172

At a glance, part of the list above:
SMILES | % of control remaining [%]
Cc1ccc(C)n1NC(=O)c1ccccc1[N+](=O)[O-] [CBK266151] | 120.42
N#Cc1cccc(S(=O)(=O)Nc2cccc3[nH]ccc23)c1 [CBK155771] | 130.727
CCc1nccn1CCC(=O)NC1CCCN(Cc2ccccc2F)C1 (stereo not drawn) [CBK306652] | 119.263
CCNC(=O)c1ccc(-c2ccc(S(C)(=O)=O)cc2)nc1 [CBK158882] | 106.893
CC(NC(=O)N1CCNC(=O)C1)c1ccccc1 (stereo not drawn) [CBK155877] | 102.713
CN(Cc1ccccc1)C(=O)[C@H]1C[C@@H](O)[C@H](O)[C@@H]2N=C(Nc3ccc(Cl)cc3)S[C@@H]21 [CBK288949] | 113.733
COc1cccc(NC(=O)CN(c2ccccc2)S(=O)(=O)c2ccc(Cl)cc2)c1 [CBK265366] | 101.244
c1cc2c3c(ccc(CSCCc4ccncc4)c3c1)CC2 [CBK261074G] | 85.1807
N#Cc1ccc(Sc2cccc(F)c2)c(F)c1 [CBK002909] | 107.316
Fc1ccc(Nc2cncc(-c3cccs3)n2)cc1Cl [CBK065813] | 98.7464
CCOC(=O)c1cnn(C2CCCN(Cc3cn(C)nc3C)C2)c1 (stereo not drawn) [CBK304044] | 135.8

(listing goes on)

SMILES | % of control remaining [%]
COc1ccc(S(=O)(=O)Nc2c(C(=O)O)sc3ncccc23)cc1OC [CBK049979] | 141.702
O=C(Nc1ccc(O)cc1C(=O)O)c1cccc(Br)c1 [CBK018511] | 102.955
CC[C@H]1CN(S(=O)(=O)c2ccccc2)CC[C@H]1CC(=O)N(C)CC#N [CBK289140] | 125.626
Cc1cnc2c(Cl)c(C(=O)N3CCC4(CCCNC4)C3)nn2c1 (stereo not drawn) [CBK307472] | 107.47
O=C1CCC(=O)N1CCOc1nccnc1N1CCN(Cc2ccccc2)CC1 [CBK084288] | 114.699
COc1ccc([N+](=O)[O-])cc1CSc1nnc(COc2ccccc2C)n1C [CBK265820] | 140.329
O=C(O)c1ccc(CSc2nnc(-c3ccncc3)n2-c2ccc(Br)cc2)cc1 [CBK267559] | 127.2
O=[N+]([O-])c1ccc(CN2CCC(Oc3nccnc3OC3CCCCC3)CC2)cc1 [CBK082861T] | 119.401
CC(C)C(=O)N1CCC(n2nc(-c3ccco3)ccc2=O)CC1 [CBK284244] | 133.986
O=C(c1cccnc1)C1CCN(C(=O)CC2CC3CCC2C3)CC1 (stereo not drawn) [CBK283530] | 110.18
CCOc1cc(OCC)cc(C(=O)N2CCC3(CC2)CC(=O)c2ccc(N)cc2O3)c1 [CBK168018] | 132.478
Cc1cccc(C(C)(C)C)c1OCCCCNCCN [CBK265092G] | 106.646
COc1ccc(C(C)C)cc1-c1nc(NS(C)(=O)=O)cc2ccccc12 [CBK073779] | 146.052
O=C(CSc1ccc2nnc(-c3ccccc3)n2n1)NCC1CCCO1 (stereo not drawn) [CBK287515] | 150.171
CC(=O)N1CC[C@H]2NC(=O)CNC(=O)C3(CCCC[C@H]2C1)CCN(C(=O)COc1ccccc1)CC3 [CBK292101] | 112.65
COc1ccc(CN2CCN(C(=O)c3ccccc3F)CC2)cc1OCc1ccccc1 [CBK263479] | 125.962
CCOc1cccc(N2C(=O)c3cc(Br)ccc3NC2c2ccc(OC)c(OC)c2)c1 (stereo not drawn) [CBK074502] | 112.612
COc1ccc(-c2nc(NC(=O)COc3ccc(C)c4c3CCC4)cnc2-c2ccc(F)cc2)cc1 [CBK036990] | 171.582
CCOc1ccc(NC(=O)C(C)O)c(NS(=O)(=O)c2ccc3ccccc3c2)c1 (stereo not drawn) [CBK268309] | 110.361
O=C(O)c1cc(NC(=O)c2ccco2)cc(NC(=O)c2ccco2)c1 [CBK263388] | 100
CCCn1c(SCC(=O)N2CCN(C(=O)c3cccs3)CC2)n[nH]c1=O [CBK297109] | 112.897
CC1(CCc2ccccc2)NC(=O)N(CC(=O)c2ccc(-c3ccccc3)cc2)C1=O (stereo not drawn) [CBK297114] | 101.206
CS(=O)(=O)NCC(=O)N1CCC2(CCCCOc3ccccc3C(=O)NCCNC2=O)CC1 [CBK292123] | 103.779
CCSc1nn(CC)c2oc3c(c2c1=S)CC(C)(C)OC3 [CBK021960] | 179.445
